# Experimental data published in the supplement of paper PMC6411743.
# ± gives the standard deviation of the averaged measurements. Some of the results follow.
# Key:
# Test in all cases: NP40-soluble protein abundance relative to vehicle (solubility fold change) (ratio); higher = more soluble protein in presence of GTP
# [1] = target: T1, Q5TBI2 and related entries (UniProt Q8NDD1)
# T1 sequence (whole entry): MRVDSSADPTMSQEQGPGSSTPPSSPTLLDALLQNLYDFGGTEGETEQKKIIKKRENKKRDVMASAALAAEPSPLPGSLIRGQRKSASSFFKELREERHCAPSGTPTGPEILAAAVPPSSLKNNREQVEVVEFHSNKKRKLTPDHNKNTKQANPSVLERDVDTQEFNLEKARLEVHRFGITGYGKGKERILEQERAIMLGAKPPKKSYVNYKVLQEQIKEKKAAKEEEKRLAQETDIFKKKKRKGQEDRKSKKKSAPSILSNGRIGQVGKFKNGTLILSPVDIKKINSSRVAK
# In short: (§1)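 In three independent experiments, Jurkat crude lysate made by Dounce homogenisation was treated for 10 min at room temperature and then 3 min at 37 °C with eight concentrations ranging from 0.1 to 10 mM. It was then solubilised with 0.8% NP40 plus benzonase for 60 min at 4 °C and ultracentrifuged. The supernatant was TMT-labelled for LC-MS/MS, and each value is the fold change against the detergent-processed vehicle for the same replicate, using vsn-normalised intensities.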
# SLFN11 = target: T2, SLFN11 (UniProt Q7Z7L1)
# T2 sequence (whole entry): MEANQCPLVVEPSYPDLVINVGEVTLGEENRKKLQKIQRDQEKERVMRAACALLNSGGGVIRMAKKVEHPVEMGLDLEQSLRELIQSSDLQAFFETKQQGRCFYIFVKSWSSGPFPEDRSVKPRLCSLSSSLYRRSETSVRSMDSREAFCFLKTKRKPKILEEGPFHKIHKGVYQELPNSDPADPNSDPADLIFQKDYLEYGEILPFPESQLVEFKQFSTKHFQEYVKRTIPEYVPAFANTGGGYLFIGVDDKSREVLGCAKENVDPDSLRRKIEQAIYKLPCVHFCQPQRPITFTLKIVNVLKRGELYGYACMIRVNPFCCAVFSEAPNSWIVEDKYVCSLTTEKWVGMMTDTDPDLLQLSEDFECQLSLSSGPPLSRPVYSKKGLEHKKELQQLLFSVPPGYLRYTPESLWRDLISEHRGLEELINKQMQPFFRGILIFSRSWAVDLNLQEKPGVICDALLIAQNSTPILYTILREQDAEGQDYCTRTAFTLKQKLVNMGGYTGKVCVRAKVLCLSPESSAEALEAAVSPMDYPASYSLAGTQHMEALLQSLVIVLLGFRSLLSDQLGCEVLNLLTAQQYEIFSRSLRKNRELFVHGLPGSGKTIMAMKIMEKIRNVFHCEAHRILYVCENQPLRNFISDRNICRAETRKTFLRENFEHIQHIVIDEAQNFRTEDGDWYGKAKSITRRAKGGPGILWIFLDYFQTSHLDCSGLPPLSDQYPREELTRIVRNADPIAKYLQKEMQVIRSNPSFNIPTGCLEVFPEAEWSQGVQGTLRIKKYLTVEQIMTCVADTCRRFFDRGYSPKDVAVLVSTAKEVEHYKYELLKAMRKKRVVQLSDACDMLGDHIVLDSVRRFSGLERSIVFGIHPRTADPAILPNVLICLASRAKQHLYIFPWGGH
# In short: as §1
# UniProt Q5VST6 = target: T3, UniProt Q5VST6
# T3 sequence (whole entry): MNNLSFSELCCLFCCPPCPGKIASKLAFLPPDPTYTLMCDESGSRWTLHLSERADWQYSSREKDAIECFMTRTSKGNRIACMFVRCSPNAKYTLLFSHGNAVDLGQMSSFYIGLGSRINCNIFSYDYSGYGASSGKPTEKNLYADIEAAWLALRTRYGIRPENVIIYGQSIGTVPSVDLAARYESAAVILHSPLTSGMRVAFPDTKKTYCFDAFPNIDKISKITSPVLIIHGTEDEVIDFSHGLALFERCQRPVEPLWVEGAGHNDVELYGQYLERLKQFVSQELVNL
# In short: as §1
# UniProt Q5W0B1 = target: T4, UniProt Q5W0B1
# T4 sequence (whole entry): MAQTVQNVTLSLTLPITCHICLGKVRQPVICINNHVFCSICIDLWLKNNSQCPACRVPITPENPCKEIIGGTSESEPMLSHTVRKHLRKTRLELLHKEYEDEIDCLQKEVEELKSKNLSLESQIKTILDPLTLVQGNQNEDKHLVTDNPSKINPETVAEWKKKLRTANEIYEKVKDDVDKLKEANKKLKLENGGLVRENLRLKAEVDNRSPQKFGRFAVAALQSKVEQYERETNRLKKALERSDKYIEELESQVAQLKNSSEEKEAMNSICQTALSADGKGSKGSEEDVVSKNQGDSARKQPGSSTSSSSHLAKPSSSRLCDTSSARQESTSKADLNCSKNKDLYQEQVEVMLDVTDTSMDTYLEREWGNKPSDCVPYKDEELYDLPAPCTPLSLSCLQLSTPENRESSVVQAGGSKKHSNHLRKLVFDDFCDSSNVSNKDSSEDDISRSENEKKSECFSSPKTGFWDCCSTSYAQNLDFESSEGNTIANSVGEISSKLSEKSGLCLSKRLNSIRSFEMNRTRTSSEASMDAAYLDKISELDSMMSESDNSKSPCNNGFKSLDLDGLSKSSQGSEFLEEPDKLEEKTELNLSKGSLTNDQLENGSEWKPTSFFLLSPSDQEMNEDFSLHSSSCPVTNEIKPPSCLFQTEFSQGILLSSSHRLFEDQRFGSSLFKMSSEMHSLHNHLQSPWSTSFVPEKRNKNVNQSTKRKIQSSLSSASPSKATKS
# In short: as §1
# UniProt Q68CQ4 = target: T5, UniProt Q68CQ4
# T5 sequence (whole entry): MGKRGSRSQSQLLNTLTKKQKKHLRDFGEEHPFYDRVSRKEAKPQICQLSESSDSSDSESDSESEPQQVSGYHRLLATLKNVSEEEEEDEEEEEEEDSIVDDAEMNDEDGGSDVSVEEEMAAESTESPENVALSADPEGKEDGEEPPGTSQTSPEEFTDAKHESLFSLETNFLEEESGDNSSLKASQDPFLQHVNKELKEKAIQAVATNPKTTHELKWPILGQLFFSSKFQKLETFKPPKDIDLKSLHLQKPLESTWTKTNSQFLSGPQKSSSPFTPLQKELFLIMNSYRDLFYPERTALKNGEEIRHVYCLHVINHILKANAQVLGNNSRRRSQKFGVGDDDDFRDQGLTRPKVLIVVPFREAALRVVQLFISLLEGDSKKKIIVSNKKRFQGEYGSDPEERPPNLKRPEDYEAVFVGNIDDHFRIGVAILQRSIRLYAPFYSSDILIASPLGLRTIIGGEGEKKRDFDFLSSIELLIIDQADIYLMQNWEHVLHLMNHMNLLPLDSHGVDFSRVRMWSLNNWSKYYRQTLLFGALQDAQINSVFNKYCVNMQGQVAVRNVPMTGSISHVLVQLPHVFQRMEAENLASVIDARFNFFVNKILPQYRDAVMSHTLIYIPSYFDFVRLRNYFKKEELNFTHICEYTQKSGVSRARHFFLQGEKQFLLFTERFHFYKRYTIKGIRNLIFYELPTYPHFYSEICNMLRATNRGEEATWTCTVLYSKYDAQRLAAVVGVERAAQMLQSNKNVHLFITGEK
# In short: as §1
smiles,measurement,setting,value
Nc1nc2c(ncn2[C@@H]2O[C@H](COP(=O)(O)OP(=O)(O)OP(=O)(O)O)[C@@H](O)[C@H]2O)c(=O)[nH]1 [guanosine triphosphate],NP40-soluble protein abundance,[1]; concentration: 4mM,1.29 ± 0.093
same,NP40-soluble protein abundance,[1]; concentration: 6mM,1.36 ± 0.13
same,NP40-soluble protein abundance,[1]; concentration: 8mM,1.43 ± 0.12
same,NP40-soluble protein abundance,[1]; concentration: 10mM,1.6 ± 0.15
same,NP40-soluble protein abundance,SLFN11; concentration: 0.1mM,1.24 ± 0.095
same,NP40-soluble protein abundance,SLFN11; concentration: 0.5mM,1.11 ± 0.036
same,NP40-soluble protein abundance,SLFN11; concentration: 1mM,1.17 ± 0.069
same,NP40-soluble protein abundance,SLFN11; concentration: 2mM,1.1 ± 0.09
same,NP40-soluble protein abundance,SLFN11; concentration: 4mM,1.28 ± 0.12
same,NP40-soluble protein abundance,SLFN11; concentration: 6mM,1.08 ± 0.015
same,NP40-soluble protein abundance,SLFN11; concentration: 8mM,1.17 ± 0.016
same,NP40-soluble protein abundance,SLFN11; concentration: 10mM,0.978 ± 0.096
same,NP40-soluble protein abundance,UniProt Q5VST6; concentration: 0.1mM,1.02 ± 0.063
same,NP40-soluble protein abundance,UniProt Q5VST6; concentration: 0.5mM,0.971 ± 0.026
same,NP40-soluble protein abundance,UniProt Q5VST6; concentration: 1mM,0.97 ± 0.064
same,NP40-soluble protein abundance,UniProt Q5VST6; concentration: 2mM,0.889 ± 0.032
same,NP40-soluble protein abundance,UniProt Q5VST6; concentration: 4mM,0.938 ± 0.015
same,NP40-soluble protein abundance,UniProt Q5VST6; concentration: 6mM,0.86 ± 0.046
same,NP40-soluble protein abundance,UniProt Q5VST6; concentration: 8mM,0.916 ± 0.054
same,NP40-soluble protein abundance,UniProt Q5VST6; concentration: 10mM,0.839 ± 0.049
same,NP40-soluble protein abundance,UniProt Q5W0B1; concentration: 0.1mM,0.947 ± 0.091
same,NP40-soluble protein abundance,UniProt Q5W0B1; concentration: 0.5mM,0.972 ± 0.068
same,NP40-soluble protein abundance,UniProt Q5W0B1; concentration: 1mM,1 ± 0.044
same,NP40-soluble protein abundance,UniProt Q5W0B1; concentration: 2mM,0.996 ± 0.067
same,NP40-soluble protein abundance,UniProt Q5W0B1; concentration: 4mM,1.05 ± 0.12
same,NP40-soluble protein abundance,UniProt Q5W0B1; concentration: 6mM,1.1 ± 0.1
same,NP40-soluble protein abundance,UniProt Q5W0B1; concentration: 8mM,1.16 ± 0.16
same,NP40-soluble protein abundance,UniProt Q5W0B1; concentration: 10mM,1.19 ± 0.16
same,NP40-soluble protein abundance,UniProt Q68CQ4; concentration: 0.1mM,1.02 ± 0.068
same,NP40-soluble protein abundance,UniProt Q68CQ4; concentration: 0.5mM,1.02 ± 0.051
same,NP40-soluble protein abundance,UniProt Q68CQ4; concentration: 1mM,1.01 ± 0.048
same,NP40-soluble protein abundance,UniProt Q68CQ4; concentration: 2mM,0.992 ± 0.04
same,NP40-soluble protein abundance,UniProt Q68CQ4; concentration: 4mM,0.999 ± 0.026
same,NP40-soluble protein abundance,UniProt Q68CQ4; concentration: 6mM,0.994 ± 0.042
same,NP40-soluble protein abundance,UniProt Q68CQ4; concentration: 8mM,1.02 ± 0.046
same,NP40-soluble protein abundance,UniProt Q68CQ4; concentration: 10mM,1.03 ± 0.048

# Looked up one by one from the list above (two):
smiles,measurement,setting,value
Nc1nc2c(ncn2[C@@H]2O[C@H](COP(=O)(O)OP(=O)(O)OP(=O)(O)O)[C@@H](O)[C@H]2O)c(=O)[nH]1 [guanosine triphosphate],NP40-soluble protein abundance,UniProt Q5VST6; concentration: 6mM,0.86 ± 0.046
same,NP40-soluble protein abundance,UniProt Q68CQ4; concentration: 4mM,0.999 ± 0.026
